Source: PMC11019930, “DnaK duplication and specialization in bacteria correlates with increased proteome complexity” (mSystems, 2024)
Results are given in words; binding and its absence hold for the method and conditions named. In cells and extracts the contact can be indirect. A yes stands for co-enrichment or nearness to the bait. Other partners may have been found.

Chains of the proteins cited; added tags and fusions are not shown.
UniProt P95334: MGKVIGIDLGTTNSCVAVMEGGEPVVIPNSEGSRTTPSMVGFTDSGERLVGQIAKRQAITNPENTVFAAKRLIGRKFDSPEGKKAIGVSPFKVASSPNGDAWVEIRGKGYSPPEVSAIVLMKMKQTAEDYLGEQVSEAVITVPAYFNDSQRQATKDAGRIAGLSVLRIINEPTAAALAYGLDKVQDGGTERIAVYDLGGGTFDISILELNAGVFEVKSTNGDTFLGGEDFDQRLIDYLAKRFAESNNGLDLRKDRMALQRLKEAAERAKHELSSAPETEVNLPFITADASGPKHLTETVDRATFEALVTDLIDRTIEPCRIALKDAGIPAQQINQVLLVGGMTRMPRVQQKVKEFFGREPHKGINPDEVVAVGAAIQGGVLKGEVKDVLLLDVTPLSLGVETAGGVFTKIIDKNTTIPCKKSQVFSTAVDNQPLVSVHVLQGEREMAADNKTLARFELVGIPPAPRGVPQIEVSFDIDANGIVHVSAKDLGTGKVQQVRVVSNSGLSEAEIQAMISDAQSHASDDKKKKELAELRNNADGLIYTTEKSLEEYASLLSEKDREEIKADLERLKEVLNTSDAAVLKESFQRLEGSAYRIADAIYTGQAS

Legend:
[1] = biological target: MxDnaK1 (MXAN_3192) (Myxococcus xanthus DK1622); assay: affinity purification with mass spectrometry; Co-IP from the soluble lysate of M. xanthus (DK1622; YL2203, YL2212, YL2213 for the chimeras) with anti-MxDnaK1 or anti-MxDnaK2 antibodies and Protein A/G beads, 4°C overnight; 50 U/mL apyrase in the lysis buffer to deplete ATP; LC-MS/MS, q-value ≤0.01, proteins found in at least two of three experiments
[2] = biological target: MxDnaK2 (MXAN_6671) (Myxococcus xanthus DK1622) (UniProt P95334); assay: as above
[3] = biological target: His6-MxDnaK2 (Myxococcus xanthus DK1622) (UniProt P95334); assay: affinity purification with mass spectrometry; two bands of 70–100 kDa in the lane of His6-MxDnaK2 purified from E. coli BL21 (DE3) on Ni-NTA, SDS-PAGE; identified as His6-MxDnaK2 with host proteins

B1: MXAN_6672 (protein, UniProt P95333 1-255)
chain: MTVIEVEASGPSTPVEAEASASPADTTSPPSDAEATPSEDVAALRQEVESLKAQLEFSQAKGRETMERLREAHERAKEAQERTVRHAADLENYRKRAQKEKEEVQRFGSEKLLKDLLPVMDNLDRAIDAAAKSPDLDSFEKGVAMTRKSFEDALGRHGVKGFSAKGQVFDPRVHEAIQQVETADVPAGHVAYEVVRGFYLNERLVRPAMVVVARAPAEPVAAAEPPAVAEPATATTDTEAPAAPAQSENSSGGSQ
With B1 the binding [1] was “binds” and the binding [2] was “binds”.

B2: anti-FlhDC factor (WP_001300634.1, 27 kDa) (protein, UniProt P76204 1-237)
chain: MKIFLENLYHSDCYFLPIRDNQQVLVGVELITHFSSEDGTVRIPTSRVIAQLTEEQHWQLFSEQLELLKSCQHFFIQHKLFAWLNLTPQVATLLLERDNYAGELLKYPFIELLINENYPHLNEGKDNRGLLSLSQVYPLVLGNLGAGNSTMKAVFDGLFTRVMLDKSFIQQQITHRSFEPFIRAIQAQISPCCNCIIAGGIDTAEILAQITPFDFHALQGCLWPAVPINQITTLVQR
With B2 the binding [3] was “binds”.
